According to patent US20100298370A1, “BENZOTHIAZOLYL THIENOPYRIDINE DERIVATIVES AND USES THEREOF” (priority 2006, published 2010):
Some of these results come from one statement about several compounds together.

The molecules below were run on carrageenan-induced paw edema in BALB/c mice (assay: Carrageenan-induced paw edema). Details: FIG. 1, i.p. 20 mg/kg, 4 hours.
Format: in vivo
Method: FIG. 1 is a graph showing the anti-inflammatory activity of Compounds 1-6 administered to mice intraperitoneally (i.p.) at 20 mg/kg, 1 hour before induction of paw edema (10-12 mice per group). The swelling of paws was measured 4 hours after induction, compared to controls and expressed as difference in paw thickness in mm (y-axis). The results were statistically evaluated by Student's t-test and statistical significance is indicated by one, two or three stars ([…]).
Acute edema was induced in the […] of BALB/c mice (10-12 mice/group) by injecting 0.02 ml of freshly prepared solution of 2% carrageenan (Sigma) under the plantar region of right hind paw (Tones et al., 2000). Carrageenan was injected 60 min after administration of the test compounds. The right paw received 0.02 ml of saline, which served as a control. The paw thickness was measured at 2, 4 and 24 hours after carrageenan challenge using a Mitutoyo engineer's micrometer. The difference between right and left pad was expressed as mean±SEM. Test compounds were injected intraperitoneally (i.p.) (20 mg/kg) in 0.5% Tween 80 in saline and vehicle control group received 0.5% Tween 80 in saline.
Compound 1 reduced paw edema by 33% and the reduction was statistically significant as determined by Student's t-test with […].
With `CSc1ccc(CC(=O)Nc2sc3c(c2-c2nc4ccccc4s2)CCN(C)C3)cc1` [Compound 3, N-[3-(2-benzothiazolyl)-4,5,6,7-tetrahydro-6-methylthieno[2,3-c]pyridin-2-yl]-2-(4-methylthiophenyl)acetamide] the “inhibition of carrageenan-induced paw edema (in words)” value (shortened to “inhibition”) was “significantly inhibited carrageenan-induced paw edema”.
In the case of `COc1cccc(OCC(=O)Nc2sc3c(c2-c2nc4ccccc4s2)CCN(C)C3)c1` [Compound 4, N-[3-(2-benzothiazolyl)-4,5,6,7-tetrahydro-6-methylthieno[2,3-c]pyridin-2-yl]-2-(3-methoxyphenoxy)acetamide], the “inhibition” value is reported as “significantly inhibited carrageenan-induced paw edema”.
With `CN1CCc2c(sc(NC(=O)c3cc4ccccc4o3)c2-c2nc3ccccc3s2)C1` [Compound 5, N-[3-(2-benzothiazolyl)-4,5,6,7-tetrahydro-6-methylthieno[2,3-c]pyridin-2-yl]-benzo[b]furan-2-carboxamide] the “inhibition” value was “significantly inhibited carrageenan-induced paw edema”.
`CN1CCc2c(sc(NC(=O)CCN3C(=O)c4ccccc4C3=O)c2-c2nc3ccccc3s2)C1` [Compound 6, N-[3-(2-benzothiazolyl)-4,5,6,7-tetrahydro-6-methylthieno[2,3-c]pyridin-2-yl]-3-(1,3-dihydro-1,3-dioxo-2H-isoindole-2)propanamide] was tested, and the “inhibition” value was “significantly inhibited carrageenan-induced paw edema”.
